Reference: patent publication US20110124006A1, “METHOD FOR SCREENING OF THERAPEUTIC AGENT FOR CANCER” (Hismitsu Pharmaceutical Co., Inc., priority 2008, published 2011)
For at least one compound, name, drawing or mass did not settle the structure.

Test system: MYCN expression
Assay: Immunoblot of EGF-induced MYCN expression in SK-N-BE cells with pathway inhibitors
Format: cell-based
Conditions: six hours, 10 ng/ml EGF, inhibitor concentrations shown in FIG. 27
Method: SK-N-BE cells were cultured for six hours in the presence of 10 ng/ml EGF and in the presence of an EGFR inhibitor AG1478, a Ras inhibitor FTI277, an ERK1/2 inhibitor U0126, a PI3Kinase inhibitor LY294002, a INK inhibitor SP600125 or a p38MAPK inhibitor SB203580 in each concentration shown in FIG. 27. Next, respective cells were collected, and the expression of MYCN was analyzed by an immunoblot method using an anti-MYCN antibody and an anti-actin antibody. FIG. 27 is a photograph showing a result of an immunoblot.

Structure (SMILES) | expression increase of MYCN by the induction of EGF (immunoblot)
O=c1cc(N2CCOCC2)oc2c(-c3ccccc3)cccc12 [LY294002] | expression increase of MYCN by the induction of EGF was inhibited
Oc1c2ccccc2c2c3c(cccc13)N=N2 [SP600125] | expression increase of MYCN by the induction of EGF was not inhibited
